Percent effect of library compounds

Chains of the proteins cited; added tags and fusions are not shown. Residues count along the entry.
UniProt P9WFT3, whole entry: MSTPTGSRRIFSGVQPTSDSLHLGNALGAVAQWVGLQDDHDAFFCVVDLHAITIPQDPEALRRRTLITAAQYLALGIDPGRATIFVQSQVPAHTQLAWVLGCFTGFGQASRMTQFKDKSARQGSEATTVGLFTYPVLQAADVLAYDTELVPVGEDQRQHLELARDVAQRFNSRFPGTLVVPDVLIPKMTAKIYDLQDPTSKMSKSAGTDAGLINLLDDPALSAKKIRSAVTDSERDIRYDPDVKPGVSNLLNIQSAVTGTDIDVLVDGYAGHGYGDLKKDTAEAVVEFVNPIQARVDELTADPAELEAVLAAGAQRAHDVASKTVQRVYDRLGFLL
UniProt P9WPC5, whole entry: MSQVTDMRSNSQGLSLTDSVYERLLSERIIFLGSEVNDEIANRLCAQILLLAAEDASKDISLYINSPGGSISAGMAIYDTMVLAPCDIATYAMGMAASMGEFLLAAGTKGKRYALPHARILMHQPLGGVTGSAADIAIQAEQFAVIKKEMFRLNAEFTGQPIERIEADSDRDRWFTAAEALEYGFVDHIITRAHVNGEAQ
UniProt P9WPC3, whole entry partner: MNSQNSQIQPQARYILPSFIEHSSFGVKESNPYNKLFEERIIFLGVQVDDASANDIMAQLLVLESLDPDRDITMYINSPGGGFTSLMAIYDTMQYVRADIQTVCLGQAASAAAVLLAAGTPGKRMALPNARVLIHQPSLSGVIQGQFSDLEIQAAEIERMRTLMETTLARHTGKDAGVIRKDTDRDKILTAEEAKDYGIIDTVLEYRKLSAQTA
UniProt Q8IDJ8, 1-583: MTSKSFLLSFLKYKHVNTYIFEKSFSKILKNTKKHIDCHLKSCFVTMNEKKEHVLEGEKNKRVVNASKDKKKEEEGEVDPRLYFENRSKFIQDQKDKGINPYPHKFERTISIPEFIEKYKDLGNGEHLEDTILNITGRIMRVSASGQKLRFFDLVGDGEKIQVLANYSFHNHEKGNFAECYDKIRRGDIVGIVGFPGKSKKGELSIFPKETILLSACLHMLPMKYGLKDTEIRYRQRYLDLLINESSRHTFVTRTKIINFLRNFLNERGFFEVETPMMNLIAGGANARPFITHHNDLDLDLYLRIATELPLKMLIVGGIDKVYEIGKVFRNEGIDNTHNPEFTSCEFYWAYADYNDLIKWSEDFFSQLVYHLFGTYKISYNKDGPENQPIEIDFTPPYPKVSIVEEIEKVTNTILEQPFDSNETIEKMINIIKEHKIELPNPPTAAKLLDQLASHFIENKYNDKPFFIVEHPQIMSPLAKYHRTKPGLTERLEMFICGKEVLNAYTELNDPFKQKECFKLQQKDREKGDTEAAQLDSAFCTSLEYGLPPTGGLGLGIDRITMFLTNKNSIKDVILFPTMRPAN
UniProt P9WNZ1, whole entry: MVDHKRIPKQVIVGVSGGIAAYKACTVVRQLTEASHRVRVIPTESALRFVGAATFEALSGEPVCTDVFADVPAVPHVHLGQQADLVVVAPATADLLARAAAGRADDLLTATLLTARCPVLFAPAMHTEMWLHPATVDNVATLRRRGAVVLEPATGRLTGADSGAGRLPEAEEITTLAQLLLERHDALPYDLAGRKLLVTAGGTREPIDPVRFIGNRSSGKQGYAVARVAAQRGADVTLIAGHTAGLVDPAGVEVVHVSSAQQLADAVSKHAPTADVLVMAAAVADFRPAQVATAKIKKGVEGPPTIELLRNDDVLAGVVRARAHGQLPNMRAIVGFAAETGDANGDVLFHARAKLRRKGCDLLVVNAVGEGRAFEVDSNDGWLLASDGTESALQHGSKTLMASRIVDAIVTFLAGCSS

Data taken from ChEMBL document CHEMBL3988442, “University of Dundee, Small-Polar-MMV Screening Library” (2021).

Results are given as percent effect.
The controls that fix the scale are not given in the record; negative values are as filed.
The compounds are a random part of those screened.
Two or more numbers in one place are separate tests of the same structure; such repeats can differ widely.
A dash means the value is not listed here; it may have been measured.

A: 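Enzyme assay of tryptophanyl-tRNA synthetase; the read-out is not stated. Target: Tryptophan-tRNA ligase, Mycobacterium tuberculosis (UniProt P9WFT3). Tested at 10 µM. Higher most likely means stronger inhibition; the record gives no direction and few retests gave an IC50. Size under these conditions: about 65,000 compounds, about 64 of them at 50% or above in at least one test.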
B: 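Protease assay of ClpP1P2, read by the AMC dye that it sets free. Target: ClpP1P2, Mycobacterium tuberculosis (UniProt P9WPC5 and UniProt P9WPC3). Compounds at 50 µM. Direction is inferred from only a few compounds that gave an IC50; most scored high, so higher reads as stronger inhibition. Most other retested compounds had strongly negative values. About 69,000 compounds were tested under these conditions; 0.015% (about 10) showed 50% or more at least once.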
C: 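Cell assay of Leishmania donovani living inside macrophages; the read-out is not stated. Concentration: 30 µM. Direction is inferred from retests: higher values go with stronger inhibition. Size under these conditions: about 69,000 compounds, about 1,000 of them at 50% or above in at least one test.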
D: 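Lysine-tRNA ligase, Plasmodium falciparum 3D7 (UniProt Q8IDJ8). Enzyme assay of the cytosolic lysyl-tRNA synthetase in 384-well plates, read by luminescence. Concentration: 30 µM. Higher reads as stronger inhibition, judged from the few compounds that gave an IC50. Size under these conditions: about 69,000 compounds, about 49 of them at 50% or above in at least one test.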
E: 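Coenzyme A biosynthesis protein CoaBC, Mycobacterium tuberculosis (UniProt P9WNZ1). Enzyme assay of CoaBC with a phosphate dye (Biomol Green) read at 650 nm. Tested at 30 µM. Higher reads as stronger inhibition, judged from the few compounds that gave an IC50. Most strong results did not repeat in a second test. Size under these conditions: about 67,000 compounds, about 40 of them at 50% or above in at least one test.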

| compound | A | B | C | D | E |
|---|---|---|---|---|---|
| `O=C(c1ccccn1)N1CC[C@H]2C(=O)N(c3ccsc3)CCO[C@H]2C1` | -3.843 | 9.635 | - | 0.4686 | 7.992 |
| `COCCCNC(=O)Nc1c(C)cccc1C(C)C` | -0.784 | 7.877 | 8.638 | 6.184 | -1.517 |
| `C=Cn1cc(CN2CCC(c3ncc(Cl)cc3S(C)(=O)=O)CC2)c(C)n1` | -5.418 | -7.573 | 15.12 | 0.845 | 7.022 |
| `CCc1ccc(-n2c(=O)[nH]c3nc(N4CCSCC4)ncc3c2=O)cc1` | -1.377 | 5.401 | 23.53 | 9.553 | 3.914 |
| `Cc1ccc(C(CC(=O)O)NC(=O)CCc2cccs2)cc1` (stereo unspecified) | 2.151 | 13.51 | -11.88 | 1.658 | -36.17 |
| `[H][C@@]12CS(=O)(=O)C[C@]1([H])N(S(=O)(=O)c1cccs1)CCN2C(=O)COC` | - | - | -6.326 | - | - |
| `CC(=O)N1CCn2c(COCc3csc(C)n3)cnc2C1C` (stereo unspecified) | 1.784 | 1.348 | 27.52 | 0.7831 | 3.426 |
| `CS(=O)(=O)CCCOc1cccc(-n2cccn2)c1` | 10.99 | 4.389 | -32.5 | -3.354 | -6.21 |
| `N#Cc1ccc(N2CCCN(c3nccs3)CC2)nc1` | -6.956 | 2.315 | -1.874 | 5.092 | -3.64 |
| `O=C(c1ccc(F)cc1)N1C[C@@H]2COC[C@]2(COc2cccnc2)C1` | - | 8.388 | - | 1.237 | 1.481 |
| `CCn1cnnc1CN(C)Cc1c[nH]nc1-c1ccc(F)cc1` | 2.457 | 3.034 | 2.02 | 0.8777 | 4.016 |
| `c1cc(CN(CCCn2ccnc2)Cc2ccoc2)ccn1` | 5.754 | -23.97 | -14.27 | 3.286 | 3.995 |
| `C/C(=C\c1ccco1)CN(C)C(C)Cc1cc(C)ccn1` (stereo unspecified) | 0.6369 | -1.327 | 3.778 | 1.922 | -6.827 |
| `N[C@@H]1c2ccccc2C2(CCN(C(=O)c3cncc(Cl)c3)CC2)[C@H]1O` | 0.8244 | -15.15 | -39.92 | 4.548 | 13.68 |
| `OC1CCN(CCNc2ncc3c(n2)CCN3c2ccccc2)CC1` | -4.134 | -7.533 | 4.727 | 5.106 | -30.47 |
| `O=C(N[C@@H]1CN[C@H]2CCCO[C@H]21)c1cnccn1` | -0.7508 | -21.2 | - | 1.901 | 3.083 |
| `CCN(CCS(=O)(=O)CC)CC1CCCO1` (stereo unspecified) | 1.283 | -0.5623 | 24.91 | 1.913 | -3.089 |
| `CCC(C)S(=O)(=O)N(Cc1ccco1)Cc1ccccc1O` (stereo unspecified) | 0 | 7.281 | 11.26 | 10.78 | 9.221 |
| `Cc1n[nH]c(C2CN(CC(=O)NCc3ccco3)CCO2)n1` (stereo unspecified) | -3.197 | -2.556 | 6.051 | -4.004 | -9.375 |
| `[H][C@]12CC[C@]([H])(CN(C(=O)C3CCC3)C1)N(C(=O)c1cccc(OCC)c1)C2` | - | - | -76.23 | - | - |
| `Cc1cccc(C(=O)N2CCCn3cnc(CN4CCCC4=O)c3C2)n1` | 11.16 | -7.644 | -2.937 | -5.186 | -2.469 |
| `CC(C)Oc1ccc2c(NC(=O)CNC(N)=O)nn(CC(F)(F)F)c2c1` | 1.36 | -0.575 | 28.98 | 6.676 | -1.788 |
| `Cc1ccc(OCc2nnc(SCC3CCCN(C)C3)o2)cc1` (stereo unspecified) | 1.141 | -5.903 | -3.535 | 1.809 | -23.38 |
| `CCCN1CCC(N2CCOC(Cc3cccc(OC)c3)C2)CC1` (stereo unspecified) | -2.389 | -9.198 | 27.62 | 0.7659 | 3.299 |
| `Cl.Cl.[H][C@@]12CN(Cc3ccccc3F)C[C@]1([H])C2CN` (stereo partly specified) | - | - | 13.71 | - | - |
| `O=C(C(CNCc1ccccc1O)c1ccccc1)N1CCOCC1` (stereo unspecified) | 3.422 | -25.38 | 5.445 | -2.776 | 6.345 |
| `Cc1nc(CN2CCN(C(=O)CCc3ccco3)CC2)cs1` | 10.46 | 14.68 | 15.52 | 1.185 | -11.55 |
| `CC(C)(C)C(=O)N1CCC2(CC1)CC(Oc1ccccc1)CO2` (stereo unspecified) | 4.348 | -9.726 | -20.23 | 4.384 | -2.161 |
| `CC1CN(C)c2ccccc2CN1C(=O)c1cnsn1` (stereo unspecified) | 0.0783 | -16.4 | 16.86 | -0.5932 | 2.445 |
| `Cc1nsc(N2CCN(Cc3cccc(F)c3)CC2)n1` | -0.8215 | -2.682 | 10.07 | -3.741 | -0.7371 |
| `O=C(O)C(F)(F)F.O=C(c1cscn1)N1CCc2c(COCC3CC3)cncc2C1` | - | - | 21.64 | - | - |
| `COCCn1ccc(NC(=O)Nc2ccc(C)cc2)n1` | -2.638 | -20.22 | 7.819 | -1.381 | 8.632 |
| `O=C(NCC1(O)CCC1)c1c(O)cc(F)cc1F` | 4.18 | -2.892 | 15.2 | -5.978 | -4.01 |
| `Cc1ccc(OCC2CCCN(C(=O)CN3CCOCC3)C2)cc1` (stereo unspecified) | 3.211 | -1.807 | -8.363 | 1.28 | 2.948 |
| `Cn1c(Cn2ccnc2)nnc1C1CCCN(C2CCCCC2)C1` (stereo unspecified) | -0.2322 | -7.922 | 8.381 | 1.48 | 0.6397 |
| `CC(Cn1cccn1)n1cnc2cccc(Cl)c2c1=O` (stereo unspecified) | -0.6441 | 6.002 | 3.379 | -5 | 1.515 |
| `O=c1cc(Cn2ccnc2)nc2n1CCCN(Cc1ccsc1)C2` | -0.201 | 4.909 | -13.04 | 9.784 | 5.518 |
| `COCCCN1Cc2cccc(NC(=O)c3cc(F)cc(F)c3)c2C1` | -1.086 | 2.967 | 23.21 | 8.6 | 4.959 |
| `CN(C)[C@@H]1CO[C@H](CNC(=O)CC(C)(C)C)[C@H]1O` | -2.212 | -13.36 | 29.59 | 3.814 | 10.02 |
| `CN1CCN(S(=O)(=O)c2ccc3c(c2)CN(C(=O)C(C)(C)C)CC3)CC1` | 1.321 | -6.031 | 38.21 | 7.149 | -3.975 |
| `CS(=O)(=O)NCc1cc2n(n1)CCCN(Cc1cc3ccccc3o1)C2` | -3.645 | -1.909 | 22.9 | 11.07 | 3.175 |
| `CN(Cc1cnn(C)c1)C(=O)C1CCCN1Cc1ccccn1` (stereo unspecified) | 18.04 | -16.28 | -19.34 | 0.1687 | 4.091 |
| `COc1cc(-c2cnnc(NCC3CC3)n2)cc(OC)c1OC` | -2.991 | -4.903 | -28.26 | -2.247 | 4.113 |
| `COc1ccc(CC(=O)N2CCCC2Cn2cccn2)cc1F` (stereo unspecified) | 0.6823 | 2.152 | 10.45 | 5.937 | 2.504 |
| `[H][C@@]12CN(C(=O)c3cccc(C)n3)C[C@]1([H])OCCN2c1ccc(C)nn1` | - | - | -2.696 | - | - |
| `COC(=O)c1cccc(C(=O)N2CCN(c3cccc(C)c3C)CC2)n1` | -0.9923 | -3.912 | 7.446 | 3.709 | 3.169 |
| `CC(=O)N1CCCCC1c1nc2c(c(NC3CCCC3)n1)CN(C)CC2` (stereo unspecified) | - | 5.353 | -4.04 & -4.241 | 2.108 | -4.126 |
| `CC(=O)N1CCc2[nH]cnc2C12CCN(C(=O)CCn1cccn1)CC2` | -2.559 | -6.979 | 17.02 | 1.794 | -0.2475 |
| `Cc1cc(C)n(C2CCCN(C(=O)c3ccc(F)c(F)c3)C2)n1` (stereo unspecified) | 0.1937 | -16.75 | 17.02 | -1.316 | 1.523 |
| `COc1cc(C(C)=O)ccc1OCC(=O)N(Cc1ccsc1)C1CC1` | 0.7048 | -6.632 | -0.3603 | 0.4237 | 0.2445 |
| `Cc1c(CNCC(C)Oc2cccnc2)c2ccccc2n1CC(N)=O` (stereo unspecified) | -12.76 | -1.635 | 14.35 | 3.141 | 10.24 |

Some entries from above, unchanged:

compound,A,B,C,D,E
O=C(c1ccc(F)cc1)N1C[C@@H]2COC[C@]2(COc2cccnc2)C1,-,8.388,-,1.237,1.481
Cc1ccc(OCc2nnc(SCC3CCCN(C)C3)o2)cc1 (stereo unspecified),1.141,-5.903,-3.535,1.809,-23.38
CS(=O)(=O)CCCOc1cccc(-n2cccn2)c1,10.99,4.389,-32.5,-3.354,-6.21